Source: the supplement of paper PMC12578635
The other results are listed elsewhere or left out. No stated cut-off is given here; in the data, active = 150% or more and inactive = the rest. Many values rest on one well or one pass, so single values are uncertain.

tested on: Staphylococcus aureus JE2-lux inside RAW 264.7 macrophages; experiment: intracellular bacterial bioluminescence relative to DMSO vehicle; higher = higher intracellular bacterial metabolic activity; conditions: 10 µM; treatment time 4 h; gentamicin 50 µg/ml
Experimental: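 RAW 264.7 macrophages infected with bioluminescent MRSA JE2-lux (MOI 100) were dispensed into 384-well plates with 10 µM compound in the presence of 50 µg/ml gentamicin. After 4 h at 37 °C, bacterial bioluminescence (a proxy for intracellular bacterial metabolic activity) and host cell viability (CellTiter-Fluor) were read and normalised to 0.1% DMSO vehicle controls. Single-pass screen of the UNC CICBDD kinase-targeted library (>4,700 compounds).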

Intracellular bacterial bioluminescence, active:
CCOC(=O)CNS(=O)(=O)c1ccc2c3c(cccc13)C(=O)N2CC 155%

Intracellular bacterial bioluminescence, inactive:
COCCNC(=S)NCCNc1nc2cc(C)cc(C)c2cc1C#N 69.7%, O=C(CC(=O)N/N=C/c1ccc(O)cc1)N/N=C\c1ccc(O)cc1 116%, CCOC(=O)C(C)Oc1cccc2c(=O)n(CC(=O)Nc3ccc(F)cc3F)ccc12 (configuration not stated) 88.7%, Cc1ccc(-c2cc(=O)c3cc(NC(=O)c4ccccn4)ccc3o2)cc1 118%, O=C(CSCc1ccccc1)Nc1ccc2c3c(cccc13)CC2 49.8%, Cc1cc(C)c2nc(NCCNC(=S)NCCc3ccccc3)c(C#N)cc2c1 72.8%, CCc1cc(=O)n(CC(=O)NCCC(C)C)c2c1c(C)nn2-c1ccc(C)cc1 65%, CCOC(=O)c1nn(-c2ccc(F)cc2)c(=O)cc1NCc1cccnc1 115%, Cn1c(N2CCN(C(=O)c3cc(-c4cccs4)n[nH]3)CC2)cc(=O)n(C)c1=O 91.4%, COc1ccc(CNC(=O)c2c(C)oc3c2C(=O)c2ccccc2C3=O)cc1 96.9%, O=c1oc2ccccc2cc1-c1csc(-c2cc3cccc([N+](=O)[O-])c3oc2=O)n1 130%, CCOC(=O)c1ccc(Oc2ncnc(N)c2[N+](=O)[O-])cc1 86.7%, Cc1c(N2CCN(C(=O)Cc3ccc(F)cc3)CC2)c(=O)n(CC(C)C)c(=O)n1-c1ccccc1 54.8%, CCOC(=O)c1c(C)[nH]c(C(=O)N/N=C\c2ccccc2O)c1C 96%, COC(=O)c1ccc(C(=O)/N=c2/sc3cc(F)ccc3n2C)cc1 106%, CCc1ccc2nc(NCCNC(=O)COC)c(C#N)cc2c1 99.1%, CCC1CCCCN1S(=O)(=O)c1ccc(C(=O)Nc2nc3c(s2)Cc2ccccc2-3)cc1 (configuration not stated) 87.2%, O=C(CSc1nnc2ncccn12)Nc1cccc2ccccc12 91.4%, Cc1cc(-n2c(C)nc3ccccc3c2=O)ccc1NC(=O)c1cncc(Br)c1 63%, O=C(CC1CCCC1)NCCn1nc(-c2cccs2)oc1=O 92.4%, C#CCn1/c(=N/C(=O)c2ccco2)sc2cc(NC(C)=O)ccc21 85%, O=[N+]([O-])c1ccc(S(=O)(=O)N2CCN=C2SCc2cccnc2)cc1 32.4%, COc1ccc(-c2cc3nc(C)cc(N4CCN(c5nc(C)cc(C)n5)CC4)n3n2)cc1OC 121%, CCN(CC)S(=O)(=O)c1ccc(-c2nnc(SC(C)C(=O)OC)o2)cc1 (configuration not stated) 43.3%, CCOC(=O)c1nn(-c2ccccc2)c(=O)cc1NCc1ccccn1 95.7%, CC1(C)COc2ccc(NC(=O)COc3ccc(F)cc3)cc2NC1=O 96.2%, NC(=O)c1c(NC(=O)c2cc3c(ccc4ccccc43)oc2=O)sc2c1CCCCC2 111%, CCn1cc(NC(=O)Nc2ccccc2C(N)=O)c2ccccc21 98.7%, COc1cc(C(C)=O)ccc1Oc1ncnc(N)c1[N+](=O)[O-] 84.2%, C=CCOc1ccccc1NC(=O)Cn1nc(C(F)(F)F)c2c1CCCC2 103%, Cc1c(C(=O)Nc2cccc(Cl)c2)sc2nc3n(c(=O)c12)N=C(c1ccc(O)c(O)c1)CS3 96.5%, Cc1c(Cc2ccc3c(c2)OCO3)sc(NC(=O)c2nc3ccccc3s2)c1C#N 99%, CCn1nc(C)c2ccnc(N3CCC(C(=O)Nc4ccc(Br)c(C)c4)CC3)c21 72.7%, Cc1ccccc1-n1nc2c(c1NC(=O)c1cc3ccccc3oc1=O)CSC2 78%, Cc1ccc(-c2c(C(F)(F)F)nn3c(O)cc(C)nc23)cc1 130%, Fc1ccc(-n2c(SCc3cccnc3)nnc2-c2cccnc2)cc1 119%, COc1cccc(/C=C2/SC(=S)N(CC(=O)Nc3ccccc3C(=O)O)C2=O)c1 87.6%, O=C(CSCc1ccccc1)Nc1ccccc1F 98.4%, CC(=O)c1cc(OC(=O)N2CCOCC2)ccc1OC(=O)N1CCOCC1 109%, O=C(O)c1ccc(CN2C(=O)SC(Nc3ccccc3C(=O)O)C2=O)cc1 (configuration not stated) 94.2%, CC1CCc2c(sc3nc(SCC(=O)c4cccs4)[nH]c(=O)c23)C1 (configuration not stated) 86.7%, CCOC(=O)C1CCN(C(=O)C2CCN(c3nccc4c(C)nn(CC)c34)CC2)CC1 104%, COc1ccc(Br)cc1CNC(=O)COc1nc(C)nc2oc(C)c(C)c12 102%, O=C(Nc1ccc(S(=O)(=O)Nc2cncs2)cc1)c1ccc(-c2cccc(C(F)(F)F)c2)o1 104%, CCOc1ccc(NC(=O)CSc2nncc(=O)[nH]2)cc1 13.4%, N#Cc1ccccc1NC(=O)C(=O)NCc1ccccc1Cl 111%, O=C(CCn1c(=S)oc2ccccc21)Nc1ccc(O)c(-c2nc3ccccc3o2)c1 87.6%, COc1ccccc1CCNC(=O)CSc1nc(=O)n(Cc2ccco2)c2c1CCC2 106%, CN(C(=O)CSc1nc(=O)n2ccccc2n1)c1ccccc1 116%, CN1C(=O)c2cccc(NC(=O)c3sc4ccccc4c3Cl)c2C1=O 149%, O=C(CSC1=NS(=O)(=O)c2ccccc2N1)Nc1ccc(Br)cc1 91.9%, O=C(CCS(=O)(=O)c1ccccc1)Nc1cccc2c1C(=O)NC2=O 111%, CCn1cc(C(=O)N2CCc3ccccc3C2)c(=O)c2ccc(C)nc21 92.3%, Cc1oc2ncnc(OCC(=O)Nc3ccc(S(N)(=O)=O)cc3)c2c1C 54.9%, N#C/C(=C\c1ccc(-c2cccc(Cl)c2)o1)c1nc2ccccc2c(=O)[nH]1 102%, COc1ccc(NC(=S)N2CCC(NC(=O)c3ccccc3)CC2)c(OC)c1 116%, CCN(C(=O)CSc1nccnc1N1CCN(c2ccccc2)CC1)c1ccccc1 35.5%, CC(=O)c1cccc(N/C=C(\C#N)c2nc(-c3ccc(F)cc3)cs2)c1 122%, Cc1nc(-c2csc(S(=O)(=O)Nc3ccc(C)c(Cl)c3)c2)no1 67.2%, Cc1cccc(N2CCN(S(=O)(=O)c3cc(-c4nc(C)cs4)cs3)CC2C)c1 (configuration not stated) 81%, COc1ccc(-n2ccn3c(CCC(=O)NCC4CCCO4)nnc3c2=O)cc1 (configuration not stated) 109%, Cc1ccccc1-c1nnc2ccc(N3CCC(C(=O)NCCN(C)C)CC3)nn12 112%, CN1Cc2ccccc2CC1C(=O)N1CCC2(CC1)NC(=O)c1ccccc1O2 (configuration not stated) 83.8%, COCCCn1c(SCC(=O)Nc2ccccc2C(=O)OC)nc2c(sc3ccccc32)c1=O 98.4%, Cc1oc(-c2ccno2)cc1S(=O)(=O)NC(C)CCc1ccccc1 (configuration not stated) 89.8%, O=C(Nc1cccc(-c2nnc(-c3ccccc3)o2)c1)Nc1ccc2c(c1)OCCO2 92.7%, CCc1ccc2oc(C(=O)Nc3nc(-c4ccc(C)s4)ns3)cc(=O)c2c1 102%, O=C(COc1ncnc2ccccc12)NC(c1ccccc1)c1cccnc1 (configuration not stated) 101%, CCOc1ccc(NC(=O)c2cnc3c(c(C)nn3-c3ccccc3)c2Cl)cc1 82.9%, O=C(Nc1cc(Cl)cc(Cl)c1)c1ccc(N2C(=O)CCC2=O)cc1 62.4%, O=C(NCCn1cccn1)c1ncoc1-c1ccc(F)cc1 130%, Cc1ccccc1C(=O)/C(C#N)=C1\Nc2ccccc2N1C 96.6%, CCc1nc(-n2nc(C)cc2N)c2c3c(sc2n1)CCC3 111%, CCOC(=O)CCn1c(=O)c2c(nc3n(CCCOC)c(C)c(C)n23)n(C)c1=O 98.1%, Cc1sc2nc(C)n3c(=O)n(CC(=O)N4CCOCC4)nc3c2c1C 110%, COc1ccc(-c2nnc3c(C(=O)N4CCC(O)(c5ccc(Cl)cc5)CC4)cccn23)cc1 113%, Cn1cnc2c(C(=O)O)nn(-c3ccccc3)c2c1=O 111%, Cc1ccc(C)c(NC(=O)c2cccnc2-c2ccsc2)c1 82.6%, O=Cc1ccc(OC(=O)CC2SC(=O)NC2=O)cc1 (configuration not stated) 47%, O=C(Nc1ccc2oc(-c3ccccc3F)cc(=O)c2c1)c1ccncc1 91.4%, Cn1c(SCC(=O)NCCCN2CCOCC2)nc2ccccc2c1=O 107%, COC(=O)c1c(NC(=O)CC2NCCNC2=O)sc2c1CCCC2 (configuration not stated) 85.6%, CCN1CCN(c2nc3ncn(CC(=O)Nc4ccc5c(c4)OCO5)c(=O)c3s2)CC1 83.5%, CCS(=O)(=O)c1ccc(CC(=O)Nc2nc3ccc(F)cc3s2)cc1 30.7%, O=c1[nH]c(-c2ccccc2)nc2sc(-c3ccccc3)cc12 119%, Cc1c(NC(=O)c2cccc(Cl)c2)c(-n2cnnc2)nn1C 100%, CCOc1ccc(NC(=O)COc2cccc3c2CCN(Cc2ccc(F)cc2)C3=O)cc1 26.4%, COc1cccc2c(=O)n(CC(=O)Nc3ccccc3C(F)(F)F)ccc12 92.1%, CSc1nc2ccc3nc(NC(=O)c4ccccc4C)sc3c2s1 79.7%, Cc1oc(-c2ccno2)cc1S(=O)(=O)N1CCCCC1C (configuration not stated) 91.6%, Cc1cn2c(nc3c2c(=O)n(Cc2c(F)cccc2Cl)c(=O)n3C)o1 123%
